Reference: patent publication US10299714B2, “Blood collection devices containing blood stabilization agent including variegin or analog thereof and/or a polysulfated disaccharide” (Becton, Dickinson and Company, priority 2010, dated 2019)

System: platelets
Assay: Platelet aggregation measurements using low dose ADP agonist, inventive tube versus hirudin tube
Assay type: cell-based, human
Conditions: five samples
Method: Measurements: Testing of platelet function (which in this experiment, was aggregation activity) was done using the Multiplate instrument (Verum Diagnostics, Munich, Germany), which uses whole blood as the sample and an increase in impedance as the measurement of platelet aggregation. The instrument was used per manufacturer's instructions. Briefly, 300 microliters of isotonic saline was warmed in each reaction cuvette, and to this was added 300 microliters of the whole blood sample. In reactions where aspirin or other platelet antagonists (inhibitors) were added in vitro, 20 microliters (μL) of a stock solution of aspirin was spiked into the samples. The aggregation reaction was initiated by addition of a platelet agonist, in this case collagen, at 3.2 μg/ml and volume (20 μl) per manufacturer's instructions. Upon addition of the collagen, the impedance measurements began automatically, and were continued for 6 minutes, representing the full course along the x-axis in the graphs shown in FIG. 2. The graphs show platelet aggregation, as reported by impedance, as an arbitrary unitless measurement on the y-axis, over the 6-minute run time on the x-axis. Traces shown are raw platelet aggregation data delivered from the instrument. […]

## Hirudin
1 h
  samples falling below the functional threshold of 27 AUC: one of the five
24 h
  samples falling below the functional threshold of 27 AUC: three of the five
